What all share (assay): pull-down; GST or GST fusion immobilized on glutathione sepharose from E. coli BL21(DE3) lysate, washed twice with PBS; incubated with 600 µl E. coli cell lysate containing the c-Myc-tagged partner for 1 to 2 h at 4°C; washed four times with PBS; eluted with 10 mM reduced glutathione; immunoblot with anti-c-Myc and anti-GST; only the target purified
Background: In western blotting, separated proteins are transferred to a membrane and probed.

For assay [1], the target named is T1, GST-XopA (X. campestris pv. vesicatoria) (UniProt B0RX62).
T1 sequence: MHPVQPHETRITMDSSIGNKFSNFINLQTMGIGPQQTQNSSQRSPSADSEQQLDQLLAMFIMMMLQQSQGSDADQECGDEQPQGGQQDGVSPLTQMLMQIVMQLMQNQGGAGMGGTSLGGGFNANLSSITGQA

The target in assay [2] is T2, GST-XopJ (X. campestris pv. vesicatoria).
T2 sequence: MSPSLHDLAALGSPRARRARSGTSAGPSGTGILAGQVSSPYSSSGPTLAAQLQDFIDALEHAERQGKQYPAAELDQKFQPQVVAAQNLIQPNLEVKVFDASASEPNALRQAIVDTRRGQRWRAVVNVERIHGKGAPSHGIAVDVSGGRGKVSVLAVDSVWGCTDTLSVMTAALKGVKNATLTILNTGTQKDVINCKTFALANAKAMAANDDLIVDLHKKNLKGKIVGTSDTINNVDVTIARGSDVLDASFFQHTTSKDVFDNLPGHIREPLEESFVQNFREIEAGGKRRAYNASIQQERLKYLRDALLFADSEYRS

The target in assay [3] is GST-HrcQ (X. campestris pv. vesicatoria).

These are yes or no findings as the source states them, for the method shown. Binding seen in cells or lysates may run through a third protein. A result given as binding can be weak or reduced; the word gives no strength. Tags and fused reporters may be left off the sequences shown.

Turning to “HrcQ-c-Myc (X. campestris pv. vesicatoria)”, the results for the binding entry in assay [1] and in assay [2] were “binds weakly” and “binds”, respectively.

B1: XopJ-c-Myc (protein, UniProt A0AB38E6N7 1-316)
chain: MSPSLHDLAALGSPRARRARSGTSAGPSGTGILAGQVSSPYSSSGPTLAAQLQDFIDALEHAERQGKQYPAAELDQKFQPQVVAAQNLIQPNLEVKVFDASASEPNALRQAIVDTRRGQRWRAVVNVERIHGKGAPSHGIAVDVSGGRGKVSVLAVDSVWGCTDTLSVMTAALKGVKNATLTILNTGTQKDVINCKTFALANAKAMAANDDLIVDLHKKNLKGKIVGTSDTINNVDVTIARGSDVLDASFFQHTTSKDVFDNLPGHIREPLEESFVQNFREIEAGGKRRAYNASIQQERLKYLRDALLFADSEYRS
Turning to B1, the binding result in assay [3] is listed as “binds”.

The values above are taken from paper PMC3511370.
